The results in this text go back to PMC7819943, “Rice protein-binding microarrays: a tool to detect cis-acting elements near promoter regions in rice”.

Protein sequences, listed by entry. Tags and fused reporters are not part of them.
UniProt Q0JBA9, entry or part of it: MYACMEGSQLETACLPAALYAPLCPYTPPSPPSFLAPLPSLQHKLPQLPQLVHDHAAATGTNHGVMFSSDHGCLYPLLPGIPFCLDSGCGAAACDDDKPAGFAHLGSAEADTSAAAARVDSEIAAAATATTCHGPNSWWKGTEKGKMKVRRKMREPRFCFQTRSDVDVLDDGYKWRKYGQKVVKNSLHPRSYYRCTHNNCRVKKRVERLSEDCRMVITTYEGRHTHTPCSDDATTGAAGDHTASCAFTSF

The other results are listed elsewhere or left out.

This assay deals with OsWRKY34 (Oryza sativa, UniProt Q0JBA9 1-250). Put plainly: protein-binding microarray (RPBM); PBS, 2% BSA, 51.3 ng/ul salmon testes DNA, 50 uM zinc acetate, 200 nM TF, 25 C, 1 h; high values mean tight binding. The settings on record: protein: recombinant; tags: N-terminal polyhistidine and DsRed monomer fusion (pET32a); label: CyDye5-dUTP incorporated in the synthesized complementary strand; 3' TTTTT single-stranded linker to array surface; dsDNA, one strand shown. The method in brief:
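Using Ni–NTA, transcription factors fused N-terminally to polyhistidine and DsRed were purified after expression in E. coli BL21-CodonPlus. These were incubated at 200 nM with a blocked, double-stranded custom Agilent array for 1 h at 25 °C in a buffer containing 50 µM zinc acetate, and the array was washed. The binding signal is per-feature fluorescence intensity (arbitrary units) on an Axon 4000B scanner.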
Turning to “AACGCCGGGGACCAACGCCTCACCCTAAGAAGCACAACTTCGGAGTCACCTAGTGCAG”, the binding signal was 8550 fluorescence intensity (a.u.).
The value for “CCTTTCTTTTAATCTAGCCACCAATTTAATTCTTGTGGCTCGGAGTCACCTAGTGCAG” was 8430 fluorescence intensity (a.u.).
As for “CCAGTTTGGTAGCTGTTCATGATGAACCTCTGTTTCTATCCGGAGTCACCTAGTGCAG”, the binding signal is 8140 fluorescence intensity (a.u.).
Take “CCTGCCCCATCCCGCGTCGGAAGCCTTACCAACTGCCCCACGGAGTCACCTAGTGCAG”: the binding signal is 8420 fluorescence intensity (a.u.).
For “ACATATTTTTGAAATGAAGAACTCAATTTTTCTGCCATCTCGGAGTCACCTAGTGCAG”, the binding signal is 8340 fluorescence intensity (a.u.).
Take “ACGCATCTGTTTTTATTCTCTCCCATCTCTCCCGATCTCTCGGAGTCACCTAGTGCAG”: the binding signal was 8880 fluorescence intensity (a.u.).
Take “CTGCCATGCCGTGTCTGTCGGTCGGTCACACCGGCACCTTCGGAGTCACCTAGTGCAG”: the binding signal was 9190 fluorescence intensity (a.u.).
For “TATCTCTCTCGTTTTCTTCTCTCTTCGAGGAGCCGAGGCGCGGAGTCACCTAGTGCAG”, the binding signal was 8200 fluorescence intensity (a.u.).
“GCACCTATGTGGCAAATTTGACTTAGTCTTCATCTGATGTCGGAGTCACCTAGTGCAG”: the binding signal is 8950 fluorescence intensity (a.u.).
With “CATTTAATTTTCCTAGTCACCCTTATTTAAATAACTTCAACGGAGTCACCTAGTGCAG”, the binding signal was 8450 fluorescence intensity (a.u.).
For “CGTGCACCAATACTACAACGGATACTGCAACAACATACTCCGGAGTCACCTAGTGCAG”, the binding signal was 8210 fluorescence intensity (a.u.).
The value for “GCCTATGATACGTCAAATTTGGTCTTGGGTTGGTATATATCGGAGTCACCTAGTGCAG” was 13200 fluorescence intensity (a.u.).
Consider “TCTGTTGTAATTGTAATCTAATCATATTAAATCCTTAGTTCGGAGTCACCTAGTGCAG”, for which the binding signal was 8410 fluorescence intensity (a.u.).
With “TGTCCTCTATTGATCTTTCTCTGCGTCCTAGTATGAAGAACGGAGTCACCTAGTGCAG”, the binding signal was 8180 fluorescence intensity (a.u.).
As to “ATACTCTGCTCCCAACTACTAGTCAACATTGACTGGTATTCGGAGTCACCTAGTGCAG”, the binding signal is 10800 fluorescence intensity (a.u.).
The value for “TCTGCTTCAGCTCTAGTCTCAGCCGTCTCATTTCCGTTTCCGGAGTCACCTAGTGCAG” was 9570 fluorescence intensity (a.u.); that for “CATGTACTTCCCTCAGGTTAGACCATCTGTTTTTGTATCCCGGAGTCACCTAGTGCAG” was 9250 fluorescence intensity (a.u.).
Take “GTGGGGTCGGGTACTCGCGTGGGCCCACCTGGCCGGTCAACGGAGTCACCTAGTGCAG”: the binding signal is 10200 fluorescence intensity (a.u.).
The value for “GTTTGATGATCTCTTGTTTCGATCGGCATGACATGGCTCCCGGAGTCACCTAGTGCAG” was 8180 fluorescence intensity (a.u.); that for “TCCCAGCAAATGCAACGCTCGTACTCCTCGCATCAACAGCCGGAGTCACCTAGTGCAG” was 8210 fluorescence intensity (a.u.); that for “TGCAGTTCGTTTTCGCCTGAACATTACTACCAGCAGCCCACGGAGTCACCTAGTGCAG” was 8770 fluorescence intensity (a.u.).
The value for “CTTTTGTGTGAGTTTTTGTGGTGACCATCCATGCATGCATCGGAGTCACCTAGTGCAG” was 9720 fluorescence intensity (a.u.); that for “CACTGTTCCTTTCTTGACTTTCAGAGTTCACAGCATAGTTCGGAGTCACCTAGTGCAG” was 13200 fluorescence intensity (a.u.).
As to “ACAGCACATTTTCGATTTTTTTTTCCCAATACACTATATACGGAGTCACCTAGTGCAG”, the binding signal is 11500 fluorescence intensity (a.u.).
Turning to “AAAAGATTTAGTTTTTCCGGTTGCAATATTTGTGAAATTACGGAGTCACCTAGTGCAG”, the binding signal was 8080 fluorescence intensity (a.u.).
Turning to “CATAATGTTTCACTTGTTGGTCAACTGTAACTAACATTGGCGGAGTCACCTAGTGCAG”, the binding signal is 8680 fluorescence intensity (a.u.).
Consider “CTATTTCAGTTGTGTTTGTGCGTGTCTGTACTTTATGTTTCGGAGTCACCTAGTGCAG”, for which the binding signal was 9990 fluorescence intensity (a.u.).
On to “GCCAGCTGGACTTTGTACTCCAACAAACGGCAGCGATGACCGGAGTCACCTAGTGCAG”, for which the binding signal is 8220 fluorescence intensity (a.u.).
Turning to “CACGAGTTCATCCCCGGTCCTGTAATCCATCGGATCCACACGGAGTCACCTAGTGCAG”, the binding signal is 8060 fluorescence intensity (a.u.).
With “GTGTGTGGTTGTGGAAATAGTGATTGTCAGAGAACGGATGCGGAGTCACCTAGTGCAG”, the binding signal is 8700 fluorescence intensity (a.u.).
Regarding “CCCAAAGCTGCACAAGCCCACGCCCACGCCTACGCCCATGCGGAGTCACCTAGTGCAG”, the binding signal is 8550 fluorescence intensity (a.u.).
The figure for “CTGTTTGTTCCTCGCACCATGTGAAAAGATCGGACGGAACCGGAGTCACCTAGTGCAG” is 8790 fluorescence intensity (a.u.).
In the case of “AAATCTATATATATCTCTCTACGTATATATTTTTTTTCTTCGGAGTCACCTAGTGCAG”, the binding signal is 9590 fluorescence intensity (a.u.).
For the sequence “ACCCTAGTTCACGCCCACCGGGGATGCTGCGACTGCGAATCGGAGTCACCTAGTGCAG”, the binding signal is 8400 fluorescence intensity (a.u.).
With “CCTTGCTCTGCCGACGCCCTCCACCTGCTCGCCGTCGACGCGGAGTCACCTAGTGCAG”, the binding signal was 9190 fluorescence intensity (a.u.).
For the sequence “CTGTGTCCAATATTTGATCGTCCATCTTATTTAAATCTTTCGGAGTCACCTAGTGCAG”, the binding signal was 9730 fluorescence intensity (a.u.).
Consider “ATTCCGCTTCCCCGCTCTCTTCTGCAAGCGCGCAATAATCCGGAGTCACCTAGTGCAG”, for which the binding signal is 8720 fluorescence intensity (a.u.).
Consider “GCAGTCCCTGTTGATCCATCCTGCCACCGATCTTGTCTCTCGGAGTCACCTAGTGCAG”, for which the binding signal is 9300 fluorescence intensity (a.u.).
For “AGCTGGTTTGACCGACCGAGGTACCCACCTTATCACTCGTCGGAGTCACCTAGTGCAG”, the binding signal was 8550 fluorescence intensity (a.u.).
The figure for “TGTTTTCATTTTACTGTGTATTTAATATTTTACCAATTACCGGAGTCACCTAGTGCAG” is 11000 fluorescence intensity (a.u.); for “TATCCCTATTATCGCTCCTTTGCCACTGCTGCATCTTAGTCGGAGTCACCTAGTGCAG” it is 8060 fluorescence intensity (a.u.).
With “CCCAATCCATCAGCCCATCTCCGGTTCTCCTCACATTTAACGGAGTCACCTAGTGCAG”, the binding signal is 9790 fluorescence intensity (a.u.).
